No constants are given. Whether binding was seen depends on the method and setting. In cells and extracts the contact can be indirect. Some results given as binding are weak or reduced against the parent protein; the word gives no strength.
Key:
[1] = target: HA-GSK3β-G1 (1-420aa) from HEK293T cells (UniProt P49841); assay: co-IP; HEK293T (text: HEK293FT) cells transfected with HA-GSK3β and Flag-USP10 domains, or Flag-USP10 and HA-GSK3β domains; immunoprecipitation and western blot of cell lysates
[2] = target: Ubiquitin-specific protease 10 (USP10), endogenous (human (endogenous in 143B and U2OS)) (UniProt Q14694); assay: co-IP; endogenous proteins; 143B and U2OS lysates (RIPA buffer) immunoprecipitated with anti-IgG, anti-USP10 or anti-GSK3β antibodies and protein A/G agarose overnight at 4 °C; western blot
[3] = target: Flag-USP10-U1 (1-798aa) from HEK293T cells (UniProt Q14694); assay: co-IP; HEK293T (text: HEK293FT) cells transfected with HA-GSK3β and Flag-USP10 domains, or Flag-USP10 and HA-GSK3β domains; immunoprecipitation and western blot of cell lysates

Chains of the proteins cited; added tags and fusions are not shown. Lines headed by an entry give the natural chain unless they say otherwise; changes in a name come on top.
UniProt P49841: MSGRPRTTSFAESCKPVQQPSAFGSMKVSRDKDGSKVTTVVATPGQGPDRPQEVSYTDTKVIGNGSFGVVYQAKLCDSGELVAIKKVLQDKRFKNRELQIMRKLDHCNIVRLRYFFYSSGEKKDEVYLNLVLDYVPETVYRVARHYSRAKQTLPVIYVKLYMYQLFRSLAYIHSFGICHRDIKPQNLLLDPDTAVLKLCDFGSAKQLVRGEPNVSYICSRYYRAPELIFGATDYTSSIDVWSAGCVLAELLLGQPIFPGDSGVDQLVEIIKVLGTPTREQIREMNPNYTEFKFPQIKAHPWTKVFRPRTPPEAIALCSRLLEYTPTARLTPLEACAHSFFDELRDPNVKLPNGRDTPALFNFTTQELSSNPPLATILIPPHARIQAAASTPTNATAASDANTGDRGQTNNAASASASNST
UniProt Q14694: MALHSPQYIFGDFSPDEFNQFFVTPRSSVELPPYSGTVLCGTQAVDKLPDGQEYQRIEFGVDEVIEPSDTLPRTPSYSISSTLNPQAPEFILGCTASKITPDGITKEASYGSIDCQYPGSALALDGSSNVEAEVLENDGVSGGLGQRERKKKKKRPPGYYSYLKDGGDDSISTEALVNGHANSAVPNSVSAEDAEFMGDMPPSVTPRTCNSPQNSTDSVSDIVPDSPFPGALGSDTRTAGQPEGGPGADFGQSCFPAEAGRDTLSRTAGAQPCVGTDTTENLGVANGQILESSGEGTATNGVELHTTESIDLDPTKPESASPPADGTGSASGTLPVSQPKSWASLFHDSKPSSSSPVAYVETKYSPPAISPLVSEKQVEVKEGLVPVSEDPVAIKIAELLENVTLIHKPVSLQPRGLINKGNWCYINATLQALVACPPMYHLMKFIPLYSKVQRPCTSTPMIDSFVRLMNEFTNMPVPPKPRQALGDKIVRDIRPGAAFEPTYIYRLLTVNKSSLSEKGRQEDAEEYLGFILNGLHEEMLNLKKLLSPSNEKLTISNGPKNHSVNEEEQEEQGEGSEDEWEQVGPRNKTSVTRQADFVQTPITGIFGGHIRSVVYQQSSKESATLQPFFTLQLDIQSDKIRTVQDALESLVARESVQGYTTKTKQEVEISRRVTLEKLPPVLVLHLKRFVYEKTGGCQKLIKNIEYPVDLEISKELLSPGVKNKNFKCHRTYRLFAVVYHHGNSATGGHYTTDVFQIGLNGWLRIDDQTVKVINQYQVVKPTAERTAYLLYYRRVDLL

Flag-USP10-U4 (415-798aa) (from UniProt Q14694 415-798) (domain or fragment)
binding [1]: binds

Glycogen synthase kinase 3β (GSK3β), endogenous (from UniProt P49841 1-420) (enzyme)
binding [2]: binds

HA-GSK3β-G3 (56-340aa) (from UniProt P49841 56-340) (domain or fragment)
binding [3]: binds

From PMC11367994
